The test addresses BSA (UniProt P02769). The experiment in a line: pull-down; control immunoprecipitation: BSA covalently coupled to Dynabeads, incubated with DTSSP cross-linked MDA-MB-231 lysate; immunoblot for Hsp90α/β; only the target purified. A general note: In western blotting, separated proteins are transferred to a membrane and probed.

The chains behind the UniProt entries cited, without tags or fusion partners.
UniProt P08238: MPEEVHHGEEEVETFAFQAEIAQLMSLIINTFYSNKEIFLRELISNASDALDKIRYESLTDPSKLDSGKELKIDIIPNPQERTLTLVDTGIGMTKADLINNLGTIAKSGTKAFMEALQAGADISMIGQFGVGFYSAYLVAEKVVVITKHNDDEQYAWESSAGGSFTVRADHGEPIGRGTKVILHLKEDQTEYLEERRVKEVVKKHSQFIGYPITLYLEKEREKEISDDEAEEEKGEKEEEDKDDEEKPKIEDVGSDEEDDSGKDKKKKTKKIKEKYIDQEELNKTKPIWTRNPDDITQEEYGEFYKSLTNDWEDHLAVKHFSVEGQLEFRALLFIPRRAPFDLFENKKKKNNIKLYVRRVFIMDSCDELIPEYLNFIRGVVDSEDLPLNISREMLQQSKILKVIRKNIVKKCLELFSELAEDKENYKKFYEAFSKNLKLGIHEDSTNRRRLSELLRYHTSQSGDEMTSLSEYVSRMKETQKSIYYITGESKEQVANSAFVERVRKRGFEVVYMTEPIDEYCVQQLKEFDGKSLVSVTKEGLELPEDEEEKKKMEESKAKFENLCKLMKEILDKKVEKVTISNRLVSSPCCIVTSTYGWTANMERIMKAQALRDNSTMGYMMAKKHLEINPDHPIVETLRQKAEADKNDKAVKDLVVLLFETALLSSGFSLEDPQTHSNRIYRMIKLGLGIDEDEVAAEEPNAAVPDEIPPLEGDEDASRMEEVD

Results are given in words; binding and its absence hold for the method and conditions named. Binding seen in cells or lysates may run through a third protein.

For “Hsp90α, endogenous in MDA-MB-231 cells (from UniProt P07900 1-732)”, the binding entry is recorded as “no binding”.
The entry for “Hsp90β, endogenous in MDA-MB-231 cells (from UniProt P08238 1-724)” is “no binding”.

The values above are taken from PMC3899338.
